Measurements reported in PubChem BioAssay AID1259425 (University of Nebraska Medical Center, 2018)

- Assay: 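Seek colon cancer weak points whose silencing resembles KSR1 loss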 (primary screen)
- System: HCT116 human colon cancer cells
- Reagents: siRNA pool against human genes, 50 nM siRNA
- Measurement: 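mRNA of six signature genes measured together by branched-DNA assay after 50 nM siRNA pool, blank removed, divided by geometric mean of two housekeeping genes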
- Scale: BNIP3L mRNA: higher = more BNIP3L transcript after knockdown; NDRG1 mRNA: higher = more NDRG1 transcript after knockdown; BNIP3 mRNA: higher = more BNIP3 transcript after knockdown; ALDOC mRNA: higher = more ALDOC transcript after knockdown; ACSL5 mRNA: higher = more ACSL5 transcript after knockdown
Here is a random part of about 14,000 deposited reagents. Not stated in the record: the time to read-out.

no.	Target gene	BNIP3L mRNA, set 1	NDRG1 mRNA, set 1	BNIP3 mRNA, set 1	ALDOC mRNA, set 1	ACSL5 mRNA, set 1
1	AMPD2 (adenosine monophosphate deaminase 2)	0.153	0.111	0.289	0.0566	0.189
2	TECTB (tectorin beta)	0.31	0.548	0.658	0.0116	0.394
3	DCAF4 (DDB1 and CUL4 associated factor 4)	0.212	0.211	0.367	0.0391	0.238
4	LAPTM4B (lysosomal protein transmembrane 4 beta)	0.179	0.729	0.406	0.0145	0.274
5	CNPY3 (canopy FGF signaling regulator 3)	0.0234	0.21	0.246	0.0331	0.302
6	DNA2 (DNA replication helicase/nuclease 2)	0.126	0.294	0.386	0.0383	0.277
7	PGM5 (phosphoglucomutase 5)	0.455	0.236	0.625	0.103	0.119
8	CHIA (chitinase acidic)	0.239	0.274	0.422	0.0319	0.326
9	HCN3	0.0791	0.105	0.387	0.0131	0.288
10	PHF20 (PHD finger protein 20)	0.104	0.11	0.405	0.0277	0.16
11	EPHA2 (EPH receptor A2)	0.069	0.105	0.245	0.0043	0.142
12	COLEC10 (collectin subfamily member 10)	0.0788	0.23	0.281	0.0464	0.241
13	SF1 (splicing factor 1)	0.22	0.213	0.314	0.0438	0.134
14	SNAPC1 (small nuclear RNA activating complex polypeptide 1)	0.0977	0.0925	0.247	0.0422	0.0873
15	MT-ND1 (mitochondrially encoded NADH dehydrogenase 1)	0.195	0.108	0.258	0.0457	0.0996
16	CFAP298 (cilia and flagella associated protein 298)	0.169	0.317	0.31	0.0894	0.356
17	TGM3 (transglutaminase 3)	0.12	0.252	0.384	0.04	0.243
18	UBE2O (ubiquitin conjugating enzyme E2 O)	0.121	0.23	0.31	0.0364	0.218
19	UBE2E3 (ubiquitin conjugating enzyme E2 E3)	0.0924	0.0809	0.159	0.0205	0.299
20	NECAB3 (N-terminal EF-hand calcium binding protein 3)	0.076	0.224	0.297	0.0209	0.131
21	MYL2 (myosin light chain 2)	0.0702	0.083	0.231	0.0149	0.0811
22	HIBCH (3-hydroxyisobutyryl-CoA hydrolase)	0.0608	0.0801	0.328	0.0139	0.0933
23	MMP1 (matrix metallopeptidase 1)	0.112	0.225	0.257	0.0308	0.18
24	LILRP2 (leukocyte immunoglobulin-like receptor pseudogene 2)	0.0868	0.202	0.3	0.00415	0.159
25	GREB1 (growth regulating estrogen receptor binding 1)	0.0914	0.0863	0.235	0.0196	0.0821
26	H2BC14 (H2B clustered histone 14)	0.109	0.335	0.519	0.0593	0.325
27	H2BC4 (H2B clustered histone 4)	0.057	0.218	0.393	0.0551	0.21
28	TPD52L2 (TPD52 like 2)	0.0937	0.178	0.269	0.0152	0.078
29	PIWIL1 (piwi like RNA-mediated gene silencing 1)	0.272	0.541	0.391	0.0371	0.146

The list goes on, starting with the last 4 of the part before.
no.	Target gene	BNIP3L mRNA, set 1	NDRG1 mRNA, set 1	BNIP3 mRNA, set 1	ALDOC mRNA, set 1	ACSL5 mRNA, set 1
26	H2BC14 (H2B clustered histone 14)	0.109	0.335	0.519	0.0593	0.325
27	H2BC4 (H2B clustered histone 4)	0.057	0.218	0.393	0.0551	0.21
28	TPD52L2 (TPD52 like 2)	0.0937	0.178	0.269	0.0152	0.078
29	PIWIL1 (piwi like RNA-mediated gene silencing 1)	0.272	0.541	0.391	0.0371	0.146
30	TMEM74B (transmembrane protein 74B)	0.117	0.239	0.211	0.0327	0.146
31	SSR2 (signal sequence receptor subunit 2)	0.0701	0.166	0.251	0.0217	0.177
32	OXER1 (oxoeicosanoid receptor 1)	0.223	0.199	0.474	0.0778	0.335
33	HTT (huntingtin)	0.198	0.218	0.3	0.0512	0.212
34	CHRM3 (cholinergic receptor muscarinic 3)	0.082	0.128	0.206	0.0142	0.123
35	MCAM (melanoma cell adhesion molecule)	0.0896	0.107	0.374	0.0113	0.135
36	KCNQ2 (potassium voltage-gated channel subfamily Q member 2)	0.191	0.305	0.463	0.0185	0.221
37	CYP24A1 (cytochrome P450 family 24 subfamily A member 1)	0.0958	0.292	0.283	0.0372	0.38
38	DSC1 (desmocollin 1)	0.127	0.0767	0.17	0.022	0.116
39	CPQ (carboxypeptidase Q)	0.16	0.839	0.23	0.048	0.178
40	WWP2 (WW domain containing E3 ubiquitin protein ligase 2)	0.0813	0.153	0.292	0.0108	0.113
41	EFR3B (EFR3 homolog B)	0.187	0.43	0.375	0.0327	0.329
42	TRAPPC1 (trafficking protein particle complex subunit 1)	-0.0563	0.442	0.376	-0.0232	0.535
43	PSMF1 (proteasome inhibitor subunit 1)	0.233	0.93	0.232	0.0784	0.244
44	RRP1B (ribosomal RNA processing 1B)	0.102	0.196	0.281	0.00927	0.148
45	HAUS3 (HAUS augmin like complex subunit 3)	0.118	0.223	0.25	0.0325	0.268
46	BTK (Bruton tyrosine kinase)	0.113	0.162	0.354	0.013	0.432
47	MGAT1	0.115	0.348	0.252	0.0287	0.159
48	SMARCE1 (SWI/SNF related BAF chromatin remodeling complex subunit E1)	0.0243	0.17	0.137	0.012	0.0909
49	ANXA5 (annexin A5)	0.101	0.118	0.183	0.0057	0.229
50	CD9 (CD9 molecule)	0.0894	0.0716	0.217	0.0161	0.215
